These are yes or no findings as the source states them, for the method shown. Some entries that bind do so weakly or less than the wild type.
B1: EGC861 (peptide)
peptide: DEHLCSISRSGMSFAWAG
B2: EGC827 (peptide)
peptide: YQVFCEWSYWEYHCISNQ
B3: EGC829 (peptide)
peptide: YIDCVPVLPGFYLPQLG
B4: EGC811 (peptide)
peptide: GQTWCHWGMYCISTT
B5: EGC797 (peptide)
peptide: SWCMWYYESTYSAPYYYCSV
B6: EGC840 (peptide)
peptide: GTHWCRYYPSYAECYVWL
B7: EGC876 (peptide)
peptide: SIEPYCPFLNPTWLEQCIARS
B8: EGC791 (peptide)
peptide: ESCWTWDHWYQYWVPQRCDP
B9: EGC836 (peptide)
peptide: WTNLFCWGPLCKCLQQ
B10: EGC801 (peptide)
peptide: PWRGCWWDPWQPWDCVPFF
B11: EGC841 (peptide)
peptide: TWLCDCSYWGCWWELG
B12: EGC792 (peptide)
peptide: ANSWCHTLYWQLHHCEILE
B13: EGC804 (peptide)
peptide: VYQYHCDWYTCLFRHT
B14: EGC820 (peptide)
peptide: LPLTCWVLEWHEWLACVSYD
B15: EGC798 (peptide)
peptide: SQCHWWHEPYGMFQTEICLW
B16: EGC832 (peptide)
peptide: ETFSCYVFPFFYECYSTP
B17: EGC831 (peptide)
peptide: WHQACEYQYYNWECSMGW
B18: EGC865 (peptide)
peptide: ESEPYCPFLNPIWKAHCIART
B19: EGC845 (peptide)
peptide: PEYLCWVYPYAPQCWDLV
B20: EGC794 (peptide)
peptide: WACRWEWHAAWQKWDEFCVE
B21: EGC871 (peptide)
peptide: TNESYCPFLNPTWKAECMARI
B22: EGC803 (peptide)
peptide: QPRECNYVPAWYCHYYS
B23: EGC856 (peptide)
peptide: SRWECAWIVGYHHWDCRWLF
B24: EGC842 (peptide)
peptide: LWVGCYIPPWTEWCPIAW
B25: EGC844 (peptide)
peptide: VWLMCWHYIFCPSKL
B26: EGC839 (peptide)
peptide: YQVMCLHQPFVSFCHYET
B27: EGC806 (peptide)
peptide: FQGHCALFPTDWICTLKS
B28: EGC854 (peptide)
peptide: DWSKCIQFSLPHDHCLMFM
B29: EGC799 (peptide)
peptide: GLHGCQYVQMFFHFCAPKT
B30: EGC858 (peptide)
peptide: IFVMCEDSWPVPFCFSNR
B31: EGC857 (peptide)
peptide: SMEYCFWYHYCQLGV
B32: EGC877 (peptide)
peptide: KSEPYCPFLNPTWHDQCIARN
B33: EGC824 (peptide)
peptide: RDQPCWYKIMTGCLCMP
B34: EGC795 (peptide)
peptide: AYCYRSIISRNSTCSAL
B35: EGC872 (peptide)
peptide: DREPYCPFLNPYWKDQCLART
B36: EGC825 (peptide)
peptide: LPPSWCVRGECSWLLL
B37: EGC800 (peptide)
peptide: WQHVCWQDWYSWVCTSGY
B38: EGC807 (peptide)
peptide: QMCHMEWHNHVYWQVCHW
B39: EGC869 (peptide)
peptide: ARDPYCPFQNPIWYNECIART
B40: EGC866 (peptide)
peptide: DSEPYCPFLNPIWKEQCLARM
B41: EGC878 (peptide)
peptide: IIGPYCPFLNPEWKDQCMART
B42: EGC808 (peptide)
peptide: WMRQCHLETECQRAS
B43: EGC828 (peptide)
peptide: VQHHCLYRQHSYRECVRHY
B44: EGC859 (peptide)
peptide: VEWMCYAYPFDPECYYNW
B45: EGC802 (peptide)
peptide: QERLCRQIWQHYCVRYM
B46: EGC846 (peptide)
peptide: VEHLCSKIPFWMFSAWPG
B47: EGC793 (peptide)
peptide: QACNFTSLGWYQEFYCLR
B48: EGC862 (peptide)
peptide: ASEPYCPFLNPVWKEQCIARL
B49: EGC823 (peptide)
peptide: WFYQCWQSPWHTECSWVN
B50: EGC789 (peptide)
peptide: YEVQCPFQNPIWWKHCMDLI
B51: EGC867 (peptide)
peptide: TSDPYCPFLNPTWKAECIART
B52: EGC796 (peptide)
peptide: VYCFLNFKTMNYAGEFWCRH
B53: EGC868 (peptide)
peptide: WSEPYCPFTNPTWKAACIARS
B54: EGC873 (peptide)
peptide: ISDPYCPFVNPIWKEQCIARN
B55: EGC874 (peptide)
peptide: RNEPYCPFVNPIWKEQCIIRT
B56: EGC822 (peptide)
peptide: WSYSCVFLPWMYHMCYLET
B57: EGC826 (peptide)
peptide: DESDCKQLPICHGHCLVPL
B58: EGC870 (peptide)
peptide: PREPYCPFHNPAWKAACVARA
B59: EGC809 (peptide)
peptide: SAVACFHPPYFFICVASG
B60: EGC810 (peptide)
peptide: LRRRCHSRFMQCSNPG
B61: EGC851 (peptide)
peptide: WRVICMARPTGEQCEWVW
B62: EGC818 (peptide)
peptide: WEYQCEWGYSYKPQCWLSA
B63: EGC875 (peptide)
peptide: LTTPYCPFENPTWKAQCIART
B64: EGC863 (peptide)
peptide: PREPYCPFHNPIWKNQCIART

Amino acid sequences for entries named in this document (tags omitted). Residues count along the entry.
UniProt P21860, residues 20-643: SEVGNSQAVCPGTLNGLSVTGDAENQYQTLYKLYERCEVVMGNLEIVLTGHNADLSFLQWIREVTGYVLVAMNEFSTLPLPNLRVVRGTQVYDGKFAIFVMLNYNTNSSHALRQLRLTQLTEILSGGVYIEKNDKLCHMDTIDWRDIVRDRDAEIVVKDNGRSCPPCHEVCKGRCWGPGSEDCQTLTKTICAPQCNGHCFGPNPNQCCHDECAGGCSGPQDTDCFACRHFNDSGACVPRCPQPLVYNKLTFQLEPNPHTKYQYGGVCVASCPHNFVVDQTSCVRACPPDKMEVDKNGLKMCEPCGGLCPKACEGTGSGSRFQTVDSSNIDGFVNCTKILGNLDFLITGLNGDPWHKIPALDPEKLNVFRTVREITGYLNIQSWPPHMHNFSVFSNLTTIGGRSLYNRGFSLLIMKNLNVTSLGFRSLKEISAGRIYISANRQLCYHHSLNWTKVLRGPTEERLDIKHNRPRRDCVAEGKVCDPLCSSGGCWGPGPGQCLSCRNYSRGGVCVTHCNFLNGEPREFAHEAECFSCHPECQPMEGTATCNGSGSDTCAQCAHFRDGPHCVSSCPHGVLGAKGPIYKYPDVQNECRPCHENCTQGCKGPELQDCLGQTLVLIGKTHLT

Molecular target: ErbB3 (UniProt P21860)
Assay: MRD screen, Example 48

binding, binds:
B1, B2, B3, B4, B5, B6, B7, B8, B9, B10, B11, B12, B13, B14, B15, B16, B17, B18, B19, B20, B21, B22, B23, B24, B25, B26, B27, B28, B29, B30, B31, B32, B33, B34, B35, B36, B37, B38, B39, B40, B41, B42, B43, B44, B45, B46, B47, B48, B49, B50, B51, B52, B53, B54, B55, B56, B57, B58, B59, B60, B61, B62, B63, B64
